Some results were stated once for a whole list of compounds, not compound by compound.
How the values were obtained:
S. aureus ATCC 29213 = assay: MIC by micro-dilution broth method (CLSI); format: cell-based
[1] = system: human foreskin fibroblasts (HFF-1); assay: Cell viability, Alamar Blue assay; format: cell-based; conditions: 72 h incubation, error SEM n = 2, read-out: IC50, Mammalian Toxicity in HFF-1
Procedure: Cell Culture. HFF-1 cells were obtained from ATCC. HFF-1 cells were grown in DMEM with 15% fetal bovine serum (Gemini Benchmark, Cat #100-106), 100 U/mL penicillin, and 100 μg/mL streptomycin. All cells were cultured at 37° C. in a 5% CO2 environment. Media was prepared by the University of Illinois School of Chemical Sciences Cell Media Facility.
Cell Viability. Cells were harvested, seeded in a 96 well-plate and allowed to adhere. Cells were treated with investigational compounds in DMSO (1% final concentration). Cells were incubated for 72 h before viability was assessed by the Alamar Blue Assay. Raptinal ([…]) was used as a dead control.

SMILES	MIC fold worse than FA (S. aureus ATCC 29213)	IC50 [1] [µM]
CC(=O)O[C@H]1C[C@@]2(C)[C@@H](C[C@@H](O)[C@H]3[C@@]4(C)CCC(=O)[C@@H](C)[C@@H]4CC[C@@]32C)/C1=C(\CCC=C(C)C)C(=O)O [Compound 5]	4-8 fold	–
CC(=O)O[C@H]1C[C@@]2(C)[C@@H](CC(=O)[C@H]3[C@@]4(C)CC[C@@H](O)[C@@H](C)[C@@H]4CC[C@@]32C)/C1=C(\CCC=C(C)C)C(=O)O [Compound 10, (Z)-2-((3R,4S,5S,8S,9S,10S,13R,14S,16S)-16-acetoxy-3-hydroxy-4,8,10,14-tetramethyl-11-oxohexadecahydro-17H-cyclopenta[a]phenanthren-17-ylidene)-6-methylhept-5-enoic acid]	4-8 fold	–
CC(=O)O[C@H]1C[C@@]2(C)[C@@H](C[C@@H](O)[C@H]3[C@@]4(C)CC[C@@H](O)[C@@H](C)[C@@H]4CC[C@@]32C)/C1=C(\CCC=C(C)C)C(=O)O [FA, Fusidic acid]	–	> 50
